Laboratory results from PubChem BioAssay AID504444 (National Center for Advancing Translational Sciences (NCATS), 2011).
In all, about 360,000 compounds went through this assay and about 7,500 (2.1%) were called active. Inconclusive results, whose numbers are uncertain, are shown with a selection of clear calls. Calls come from the whole dose curve; as a rule, active = well fitted inhibition curve with a large enough effect; inconclusive = small, poorly fitted or top-dose-only effect, or effect the other way; inactive = flat fitted curve, though single readings scatter. Potencies beside an inconclusive call are fits to weak or partial responses and may not hold up.

Assay: Nrf2 qHTS screen for inhibitors; note: nearly all actives have a fitted effect of over 60% in size
Conditions: A549 ARE-Fluc reporter, luciferase luminescence, 18-24 h; series mostly up to 46 µM
Procedure, shortened: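 Concentration-response testing used A549 ARE_Fluc cells at 5000 cells/well. Following an 18-24 h compound incubation, viability was read by fluorescence (Ex 405/Em 525) and luciferase output by luminescence.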
Potency is the fitted concentration of half-maximal effect.

Structure (SMILES) | Potency
COc1cc(C2NCC(c3ccc(Cl)cc3Cl)c3c2[nH]c2ccccc32)cc(OC)c1OC (stereo not given) | inconclusive: 23.1 µM [falling, single point]
CSc1ccccc1OCc1cc(C(=O)N(C)Cc2ccc(C)o2)no1 | inactive
COC(=O)c1cc(=O)n(Cc2ccco2)c(=Nc2ccc(F)c(Cl)c2)s1 | active: 25.9 µM
Cc1cc(NC(=O)c2ccc(Br)c([N+](=O)[O-])c2)no1 | inconclusive: 23.1 µM [activator, single point]
O=C(O)c1cccc(NC(=O)c2ccc3c(c2)C(=O)N(C2CCCCC2)C3=O)c1 | inconclusive: 18.4 µM [activator, partial curve]
CCN1CCN(Cc2ccc(NC(=O)Nc3ccc(OC)cc3)cc2)CC1 | inconclusive: 18.4 µM [activator, single point]
Cc1ccc(OCC(=O)Nc2ccc3c(c2)C(=O)NC3=O)cc1 | inconclusive: 20.6 µM [falling, partial curve, poor fit]
CCc1cccc(NC(=O)CSc2nc3ccsc3c(=O)n2CC)c1 | inconclusive: 20.6 µM [falling, single point]
COc1cccc(CC2(CO)CCN(CC3=CC[C@H]4C[C@@H]3C4(C)C)CC2)c1 | inconclusive: 29.1 µM [activator, single point]
Cc1ccc(NC(=O)c2cnn(-c3ccccc3)c2C)cc1C | inconclusive: 0.651 µM [activator, full curve, poor fit]
Cn1nnnc1Sc1ncnc2scc(-c3ccc(Cl)cc3)c12 | inconclusive: 29.1 µM [falling, single point]
Cn1c(=O)n(C)c2cc([N+](=O)[O-])c(N3CCN(C(=O)C(C)(C)C)CC3)cc21 | inconclusive: 16.4 µM [falling, single point]
COc1ccc(-n2c(C)cc(C(=O)CSc3nnc(-c4cccs4)o3)c2C)cc1 | active: 18.4 µM
Cc1ccc(CN(Cc2cccn2-c2nnc(N3CCCC3=O)s2)C(=O)Nc2ccccc2C(F)(F)F)cc1 | inconclusive: 29.1 µM [falling, single point]
Oc1c(C=Nc2ccccc2)sc(=S)n1Cc1ccccc1 | inconclusive: 18.4 µM [activator, partial curve, poor fit]
Cc1nn(-c2ccc(Cl)c(Cl)c2)c(=O)c2ccccc12 | inconclusive: 0.651 µM [activator, full curve]
Cc1nc(-c2ccc(S(=O)(=O)N3CCN(CCc4ccccc4)CC3)s2)cs1 | active: 23.1 µM
Cc1cc(C(=O)OCC(=O)Nc2ccc(F)cc2F)c(C)o1 | inconclusive: 1.84 µM [falling, full curve, poor fit]
Cc1ccc2nc(-c3ccc(NC(=O)CN4CCN(c5ccccn5)CC4)cc3)sc2c1 | inconclusive: 6.51 µM [activator, single point]
CC(C)NC(=O)/C(C#N)=C/c1cccc(NC(=O)c2ccccc2Cl)c1 | inconclusive: 0.116 µM [activator, full curve]

Of the compounds above, these contain a nitro group on carbon:
Structure (SMILES) | Potency
Cc1cc(NC(=O)c2ccc(Br)c([N+](=O)[O-])c2)no1 | inconclusive: 23.1 µM [activator, single point]
Cn1c(=O)n(C)c2cc([N+](=O)[O-])c(N3CCN(C(=O)C(C)(C)C)CC3)cc21 | inconclusive: 16.4 µM [falling, single point]

Next results.

Structure (SMILES) | Potency
CCOC(=O)c1cccc(NC(=O)CSc2nc3cccnc3n2C)c1 | inconclusive: 7.31 µM [falling, partial curve, poor fit]
c1ccc(N2N=C(c3cccs3)CC2c2ccco2)cc1 (stereo not given) | inconclusive: 20.6 µM [activator, partial curve, poor fit]
CCOc1ccc(N(CC)S(=O)(=O)N2CCCC(C(=O)Nc3cc(Cl)ccc3C)C2)cc1 (stereo not given) | inconclusive: 32.6 µM [falling, single point]
CCC(=O)[C@@]1(C)[C@H](C)C[C@H]2[C@@H]3CCC4=CC(=O)C=C[C@]4(C)[C@H]3[C@@H](O)C[C@@]21C | active: 0.0164 µM
COc1ccc(NC(=O)Nc2nc3c(s2)CCCC3)cc1 | inconclusive: 6.51 µM [activator, single point]
Cc1ccc(C2=CC(c3cccs3)n3nnnc3N2)cc1 (stereo not given) | inconclusive: 2.91 µM [activator, full curve, poor fit]
Cn1cnc([N+](=O)[O-])c1Sc1nc(N)nc2c1ncn2C1CC(O)C(CO)O1 (stereo not given) | inconclusive: 1.84 µM [falling, full curve, poor fit]
CCC(NC(=O)c1cc(COc2cncc(Cl)c2)on1)c1ccc(C)cc1 (stereo not given) | inconclusive: 29.1 µM [falling, single point]
COc1ccccc1CNc1nc2ccc(Cl)cc2n2cnnc12 | inconclusive: 32.6 µM [activator, partial curve, poor fit]
CCOc1ccc(N(CCC#N)S(=O)(=O)c2ccc(OC)cc2)cc1 | inconclusive: 29.1 µM [falling, single point]
O=C(c1noc2c1CCCCC2)N1CCN(c2cccc(C(F)(F)F)c2)CC1 | inconclusive: 29.1 µM [falling, single point]
Cc1ccccc1OC(=O)CSc1nnc(-c2ccc3c(c2)OCO3)o1 | inconclusive: 14.6 µM [activator, partial curve, poor fit]
Cc1ccc(Cl)cc1N1CCN(C(=O)C2CCN(S(=O)(=O)c3cccc4nonc34)CC2)CC1 | inconclusive: 23.1 µM [falling, single point]
COC(=O)c1cc(NC(=O)c2nn(C)c3c2CSc2ccccc2-3)cc(C(=O)OC)c1 | inactive
O=C(CSc1nc(-c2ccccc2)cs1)Nc1cccc([N+](=O)[O-])c1 | inconclusive: 32.6 µM [falling, single point]
Cc1cc(C(C)(C)C)cc(C)c1C[n+]1ccc2ccccc2c1 | active: 3.66 µM
O=C(CNc1ccccc1OC(F)F)N1CCc2ccccc21 | inconclusive: 5.17 µM [activator, partial curve]
Cc1cc2ccccc2n1CCNC(=O)c1cc(C(F)(F)F)cc(C(F)(F)F)c1 | inactive
COCCn1c(SCC(=O)c2ccc(C)cc2C)nc2cc(C(=O)NC3CCCC3)ccc2c1=O | inconclusive: 29.1 µM [falling, single point]
COc1ccc(S(=O)(=O)N2CCC(C(N)=O)(N3CCCCC3)CC2)cc1 | inactive
